# Measured values reported in the supplement of paper PMC4604168 (melanoma cell lines).
# The other results are listed elsewhere or left out. Single values are uncertain, as repeats are few or missing.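 The apoptosis fraction was the count of cleaved-PARP antibody-stained nuclei relative to all DNA-stained nuclei, imaged in 1,536-well plates. Screening doses were set so most cells survived, and baseline and induced cleaved-PARP levels vary greatly across cell lines.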
# System: A101D
# Test: cleaved PARP positive nuclei fraction relative to DMSO control; melanoma cells; higher = more apoptosis
# Settings: library dose: low library concentration; 72 h
row,Compound,cleaved PARP positive nuclei fraction [%]
1,"O=c1[nH]nc(Sc2ncc([N+](=O)[O-])s2)n1-c1ccc2c(c1)OCCO2 + N.N.[Cl][Pt][Cl] [cisplatin] (first compound 0.2 µM, partner dose 1.6 µM)",38.8
2,"N.N.[Cl][Pt][Cl] [cisplatin] + C=C(c1ccc(C(=O)O)cc1)c1cc2c(cc1C)C(C)(C)CCC2(C)C [Bexarotene] (first compound 1.6 µM, partner dose 2 µM)",98.4
3,"C=C(c1ccc(C(=O)O)cc1)c1cc2c(cc1C)C(C)(C)CCC2(C)C [Bexarotene] + C[As](C)SC[C@H](NC(=O)CC[C@H](N)C(=O)O)C(=O)NCC(=O)O [Darinaparsin] (first compound 2 µM, partner dose 0.4 µM)",88.4
4,"Cc1cc(Nc2cc(N3CCN(C)CC3)nc(Sc3ccc(NC(=O)C4CC4)cc3)n2)n[nH]1 [Tozasertib] + Cn1cc(C2=C(c3cn(C4CCN(Cc5ccccn5)CC4)c4ccccc34)C(=O)NC2=O)c2ccccc21 [Enzastaurin] (first compound 0.006 µM, partner dose 0.8 µM)",87.1
5,"CCN(CC)CCNC(=O)c1c(C)[nH]c(/C=C2\C(=O)Nc3ccc(F)cc32)c1C [sunitinib] + N.N.[Cl][Pt][Cl] [cisplatin] (first compound 0.4 µM, partner dose 1.6 µM)",173
6,"Cn1cc(C2=C(c3cn(C4CCN(Cc5ccccn5)CC4)c4ccccc34)C(=O)NC2=O)c2ccccc21 [Enzastaurin] + OCc1c[nH]c2ccccc12 [Indole-3-carbinol] (first compound 0.8 µM, partner dose 0.8 µM)",42.7
7,"C[As](C)SC[C@H](NC(=O)CC[C@H](N)C(=O)O)C(=O)NCC(=O)O [Darinaparsin] + Nc1cccc2c1CN(C1CCC(=O)NC1=O)C2=O [lenalidomide] (first compound 0.4 µM, partner dose 1 µM)",40.7
8,"C[C@]12O[C@H](C[C@]1(O)CO)n1c3ccccc3c3c4c(c5c6ccccc6n2c5c31)CNC4=O [Lestaurtinib] + Clc1ccc(Nc2nnc(Cc3ccncc3)c3ccccc23)cc1 [vatalanib] (first compound 0.004 µM, partner dose 2 µM)",95.7
9,"Cn1cc(C2=C(c3cn(C4CCN(Cc5ccccn5)CC4)c4ccccc34)C(=O)NC2=O)c2ccccc21 [Enzastaurin] + O=C(O)c1ccc2c(c1)nc(Nc1cccc(Cl)c1)c1ccncc12 [CX4945] (first compound 0.8 µM, partner dose 0.4 µM)",227
10,"C[C@]12O[C@H](C[C@]1(O)CO)n1c3ccccc3c3c4c(c5c6ccccc6n2c5c31)CNC4=O [Lestaurtinib] + Nc1ncn([C@H]2C[C@H](O)[C@@H](CO)O2)c(=O)n1 [decitabine] (first compound 0.004 µM, partner dose 0.1 µM)",32.1
11,"Cn1cc(C2=C(c3cn(C4CCN(Cc5ccccn5)CC4)c4ccccc34)C(=O)NC2=O)c2ccccc21 [Enzastaurin] + C[C@]1(c2nc3c(C(N)=O)cccc3[nH]2)CCCN1 [Veliparib] (first compound 0.8 µM, partner dose 1.4 µM)",51.6
12,"Cc1ccc(Nc2nccc(N(C)c3ccc4c(C)n(C)nc4c3)n2)cc1S(N)(=O)=O [Pazopanib] + N.N.[Cl][Pt][Cl] [cisplatin] (first compound 0.4 µM, partner dose 1.6 µM)",65.1
13,"C[As](C)SC[C@H](NC(=O)CC[C@H](N)C(=O)O)C(=O)NCC(=O)O [Darinaparsin] + Cn1c(Nc2ccc(C(F)(F)F)cc2)nc2cc(Oc3ccnc(-c4ncc(C(F)(F)F)[nH]4)c3)ccc21 [CHIR265] (first compound 0.4 µM, partner dose 0.08 µM)",83.9
14,"CC[C@]1(O)C[C@H]2CN(CCc3c([nH]c4ccccc34)[C@@](C(=O)OC)(c3cc4c(cc3OC)N(C=O)[C@H]3[C@@](O)(C(=O)OC)[C@H](OC(C)=O)[C@]5(CC)C=CCN6CC[C@]43[C@@H]65)C2)C1 [vincristine] + N.N.[Cl][Pt][Cl] [cisplatin] (first compound 0.0001 µM, partner dose 1.6 µM)",211
15,"O=C(/C=C/c1cccnc1)NCCCCC1CCN(C(=O)c2ccccc2)CC1 + N.N.[Cl][Pt][Cl] [cisplatin] (first compound 0.01 µM, partner dose 1.6 µM)",47
16,"Nc1ncn([C@H]2C[C@H](O)[C@@H](CO)O2)c(=O)n1 [decitabine] + C[As](C)SC[C@H](NC(=O)CC[C@H](N)C(=O)O)C(=O)NCC(=O)O [Darinaparsin] (first compound 0.1 µM, partner dose 0.4 µM)",42.8
17,"C#Cc1cccc(Nc2ncnc3cc(OCCOC)c(OCCOC)cc23)c1 [erlotinib] + C[As](C)SC[C@H](NC(=O)CC[C@H](N)C(=O)O)C(=O)NCC(=O)O [Darinaparsin] (first compound 0.8 µM, partner dose 0.4 µM)",190
18,"Cn1cc(C2=C(c3cn(C4CCN(Cc5ccccn5)CC4)c4ccccc34)C(=O)NC2=O)c2ccccc21 [Enzastaurin] + CC(=O)c1c(C)c2cnc(Nc3ccc(N4CCNCC4)cn3)nc2n(C2CCCC2)c1=O [palbociclib] (first compound 0.8 µM, partner dose 0.04 µM)",113
19,"N.N.[Cl][Pt][Cl] [cisplatin] + O=C(O)[C@@H]1[O][Sb](=[O])([O][Sb]2(=[O])[O][C@H]([C@H](O)CO)[C@H](O)[C@H](C(=O)O)[O]2)[O][C@H]([C@H](O)CO)[C@@H]1O [stibogluconate] (first compound 1.6 µM, partner dose 2 µM)",258
20,"Cc1cn(-c2cc(NC(=O)c3ccc(C)c(Nc4nccc(-c5cccnc5)n4)c3)cc(C(F)(F)F)c2)cn1 [nilotinib] + C[C@]12O[C@H](C[C@]1(O)CO)n1c3ccccc3c3c4c(c5c6ccccc6n2c5c31)CNC4=O [Lestaurtinib] (first compound 0.2 µM, partner dose 0.004 µM)",127
21,"CO[C@H]1C[C@@H]2CC[C@@H](C)[C@@](O)(O2)C(=O)C(=O)N2CCCC[C@H]2C(=O)O[C@H]([C@H](C)C[C@@H]2CC[C@@H](OCCO)[C@H](OC)C2)CC(=O)[C@H](C)/C=C(\C)[C@@H](O)[C@@H](OC)C(=O)[C@H](C)C[C@H](C)/C=C/C=C/C=C/1C [everolimus] + C[As](C)SC[C@H](NC(=O)CC[C@H](N)C(=O)O)C(=O)NCC(=O)O [Darinaparsin] (first compound 0.02 µM, partner dose 0.4 µM)",59.2
22,"Cn1cc(C2=C(c3cn(C4CCN(Cc5ccccn5)CC4)c4ccccc34)C(=O)NC2=O)c2ccccc21 [Enzastaurin] + C#Cc1cccc(Nc2ncnc3cc(OCCOC)c(OCCOC)cc23)c1 [erlotinib] (first compound 0.8 µM, partner dose 0.8 µM)",141
23,"C[C@]12O[C@H](C[C@]1(O)CO)n1c3ccccc3c3c4c(c5c6ccccc6n2c5c31)CNC4=O [Lestaurtinib] + CC(=O)O[C@@]12CO[C@@H]1C[C@H](O)[C@@]1(C)C(=O)[C@H](O)C3=C(C)[C@@H](OC(=O)[C@H](O)[C@@H](NC(=O)OC(C)(C)C)c4ccccc4)C[C@@](O)([C@@H](OC(=O)c4ccccc4)[C@H]21)C3(C)C [Docetaxel] (first compound 0.004 µM, partner dose 0.0001 µM)",54.8
24,"C[C@]12O[C@H](C[C@]1(O)CO)n1c3ccccc3c3c4c(c5c6ccccc6n2c5c31)CNC4=O [Lestaurtinib] + CS(=O)(=O)c1ccc(C(=O)Nc2ccc(Cl)c(-c3ccccn3)c2)c(Cl)c1 [vismodegib] (first compound 0.004 µM, partner dose 1 µM)",120
25,"N.N.[Cl][Pt][Cl] [cisplatin] + C=CCNC1=C2C[C@@H](C)C[C@H](OC)[C@H](O)[C@@H](C)/C=C(\C)[C@H](OC(N)=O)[C@@H](OC)/C=C\C=C(/C)C(=O)NC(=CC1=O)C2=O [Tanespimycin] (first compound 1.6 µM, partner dose 0.002 µM)",105
26,"O=C(/C=C/c1cccnc1)NCCCCC1CCN(C(=O)c2ccccc2)CC1 + C[C@]12O[C@H](C[C@]1(O)CO)n1c3ccccc3c3c4c(c5c6ccccc6n2c5c31)CNC4=O [Lestaurtinib] (first compound 0.01 µM, partner dose 0.004 µM)",137
27,"N.N.[Cl][Pt][Cl] [cisplatin] + OCc1c[nH]c2ccccc12 [Indole-3-carbinol] (first compound 1.6 µM, partner dose 0.8 µM)",44.4
28,"Cn1cc(C2=C(c3cn(C4CCN(Cc5ccccn5)CC4)c4ccccc34)C(=O)NC2=O)c2ccccc21 [Enzastaurin] + CO[C@H]1C[C@@H]2CC[C@@H](C)[C@@](O)(O2)C(=O)C(=O)N2CCCC[C@H]2C(=O)O[C@H]([C@H](C)C[C@@H]2CC[C@@H](OCCO)[C@H](OC)C2)CC(=O)[C@H](C)/C=C(\C)[C@@H](O)[C@@H](OC)C(=O)[C@H](C)C[C@H](C)/C=C/C=C/C=C/1C [everolimus] (first compound 0.8 µM, partner dose 0.02 µM)",111

# Retrieved one by one from the list above:
row,Compound,cleaved PARP positive nuclei fraction [%]
2,"N.N.[Cl][Pt][Cl] [cisplatin] + C=C(c1ccc(C(=O)O)cc1)c1cc2c(cc1C)C(C)(C)CCC2(C)C [Bexarotene] (first compound 1.6 µM, partner dose 2 µM)",98.4
14,"CC[C@]1(O)C[C@H]2CN(CCc3c([nH]c4ccccc34)[C@@](C(=O)OC)(c3cc4c(cc3OC)N(C=O)[C@H]3[C@@](O)(C(=O)OC)[C@H](OC(C)=O)[C@]5(CC)C=CCN6CC[C@]43[C@@H]65)C2)C1 [vincristine] + N.N.[Cl][Pt][Cl] [cisplatin] (first compound 0.0001 µM, partner dose 1.6 µM)",211
